Data source: PubChem BioAssay AID686938 (Drosophila RNAi Screening Center, 2013)

- Screen: 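Fly genes required for calcium entry once internal stores are emptied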 (primary screen)
- Cell system: Drosophila S2R+ cells
- Reagents: long dsRNA against Drosophila genes, about 0.25 µg dsRNA per well, roughly 10,000 cells
- Timing: 5 days of knock-down before the calcium assay
- Challenge: thapsigargin (SERCA pump blocker) to empty calcium stores; entry signal taken 4 min after adding it
- Detection: 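Per-well fluo-4 fluorescence in two replicates, unnormalised, measured in resting cells and 4 min after store depletion by the SERCA blocker thapsigargin; ratio of the two present in few wells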
- Reading the numbers: calcium entry signal: higher = stronger calcium signal after store depletion; resting calcium signal: higher = higher resting calcium signal
- Call rule: 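Called when the plate z-score of the entry-to-rest ratio, mean of duplicates, falls below −3; wells with low overall dye signal (Fmax z below −2) or more than five off-targets excluded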
- Calls: active = strongly reduced calcium entry; inactive = no strong reduction
In all, the deposit lists about 23,000 reagents; shown is a random part of those with a known target gene and a result. Of all reagents, 75 (0.33%) got an active call. 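Raw plate signals without normalisation; calls rest on plate z-scores that were not deposited; ratio present for only 364 wells.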 A number with no mark means an inactive call. Not stated in the record: the dose of the treatment.

Skadu [DRSC01490]
- calcium entry signal, replicate 1 (fluorescence units): 2.81e7
- calcium entry signal, replicate 2 (fluorescence units): 4.33e7
- resting calcium signal, replicate 1 (fluorescence units): 1.60e7
- resting calcium signal, replicate 2 (fluorescence units): 1.91e7

Vha44 [DRSC07572]
- calcium entry signal, replicate 1 (fluorescence units): 3.78e7
- calcium entry signal, replicate 2 (fluorescence units): 3.84e7
- resting calcium signal, replicate 1 (fluorescence units): 2.33e7
- resting calcium signal, replicate 2 (fluorescence units): 2.33e7

Vha44 [DRSC07573]
- calcium entry signal, replicate 1 (fluorescence units): 5.28e7
- calcium entry signal, replicate 2 (fluorescence units): 4.52e7
- resting calcium signal, replicate 1 (fluorescence units): 2.21e7
- resting calcium signal, replicate 2 (fluorescence units): 2.18e7

Debcl [DRSC04965]
- calcium entry signal, replicate 1 (fluorescence units): 4.86e7
- resting calcium signal, replicate 1 (fluorescence units): 2.39e7

CG2233 [DRSC18217]
- calcium entry signal, replicate 1 (fluorescence units): 2.61e7
- calcium entry signal, replicate 2 (fluorescence units): 2.54e7
- resting calcium signal, replicate 1 (fluorescence units): 1.19e7
- resting calcium signal, replicate 2 (fluorescence units): 1.26e7

CG2574 [DRSC19862]
- calcium entry signal, replicate 1 (fluorescence units): 5.82e7
- calcium entry signal, replicate 2 (fluorescence units): 6.19e7
- resting calcium signal, replicate 1 (fluorescence units): 2.78e7
- resting calcium signal, replicate 2 (fluorescence units): 2.57e7

Cp110 [DRSC20630]
- calcium entry signal, replicate 1 (fluorescence units): 3.54e7
- calcium entry signal, replicate 2 (fluorescence units): 4.13e7
- resting calcium signal, replicate 1 (fluorescence units): 1.67e7
- resting calcium signal, replicate 2 (fluorescence units): 1.86e7

Cp110 [DRSC21716]
- calcium entry signal, replicate 1 (fluorescence units): 2.18e7
- calcium entry signal, replicate 2 (fluorescence units): 2.61e7
- resting calcium signal, replicate 1 (fluorescence units): 1.23e7
- resting calcium signal, replicate 2 (fluorescence units): 1.27e7

COX7A [DRSC16514]
- calcium entry signal, replicate 1 (fluorescence units): 3.99e7
- calcium entry signal, replicate 2 (fluorescence units): 1.95e7
- resting calcium signal, replicate 1 (fluorescence units): 1.99e7
- resting calcium signal, replicate 2 (fluorescence units): 1.11e7

PPO1 [DRSC05929]
- calcium entry signal, replicate 1 (fluorescence units): 3.50e7
- calcium entry signal, replicate 2 (fluorescence units): 2.95e7
- resting calcium signal, replicate 1 (fluorescence units): 1.59e7
- resting calcium signal, replicate 2 (fluorescence units): 1.53e7

CG9106 [DRSC20154]
- calcium entry signal, replicate 1 (fluorescence units): 3.21e7
- calcium entry signal, replicate 2 (fluorescence units): 3.96e7
- resting calcium signal, replicate 1 (fluorescence units): 1.56e7
- resting calcium signal, replicate 2 (fluorescence units): 1.81e7

As entered above.
For “calcium entry signal, replicate 2 (fluorescence units)”, Cp110 [DRSC21716] reads 2.61e7
Under “calcium entry signal, replicate 2 (fluorescence units)”, CG9106 [DRSC20154] has 3.96e7

Additional records follow.
CG7882 [DRSC04899]
- calcium entry signal, replicate 1 (fluorescence units): 4.01e7
- calcium entry signal, replicate 2 (fluorescence units): 5.22e7
- resting calcium signal, replicate 1 (fluorescence units): 1.95e7
- resting calcium signal, replicate 2 (fluorescence units): 2.48e7

Spn27A [DRSC03608]
- calcium entry signal, replicate 1 (fluorescence units): 2.93e7
- calcium entry signal, replicate 2 (fluorescence units): 2.79e7
- resting calcium signal, replicate 1 (fluorescence units): 1.41e7
- resting calcium signal, replicate 2 (fluorescence units): 1.44e7

Acox3 [DRSC03251]
- calcium entry signal, replicate 1 (fluorescence units): 2.27e7
- calcium entry signal, replicate 2 (fluorescence units): 2.23e7
- resting calcium signal, replicate 1 (fluorescence units): 1.27e7
- resting calcium signal, replicate 2 (fluorescence units): 1.09e7

CG15468 [DRSC18051]
- calcium entry signal, replicate 1 (fluorescence units): 3.77e7
- calcium entry signal, replicate 2 (fluorescence units): 4.11e7
- resting calcium signal, replicate 1 (fluorescence units): 1.84e7
- resting calcium signal, replicate 2 (fluorescence units): 1.85e7

CG42699 [DRSC18076]
- calcium entry signal, replicate 1 (fluorescence units): 3.03e7
- calcium entry signal, replicate 2 (fluorescence units): 3.13e7
- resting calcium signal, replicate 1 (fluorescence units): 1.39e7
- resting calcium signal, replicate 2 (fluorescence units): 1.50e7

CG42699 [DRSC18341]
- calcium entry signal, replicate 1 (fluorescence units): 4.02e7
- calcium entry signal, replicate 2 (fluorescence units): 4.30e7
- resting calcium signal, replicate 1 (fluorescence units): 2.06e7
- resting calcium signal, replicate 2 (fluorescence units): 2.00e7

CG12011 [DRSC08219]
- calcium entry signal, replicate 1 (fluorescence units): 4.43e7
- calcium entry signal, replicate 2 (fluorescence units): 4.37e7
- resting calcium signal, replicate 1 (fluorescence units): 2.17e7
- resting calcium signal, replicate 2 (fluorescence units): 2.09e7

CG15128 [DRSC06550]
- calcium entry signal, replicate 1 (fluorescence units): 6.76e7
- calcium entry signal, replicate 2 (fluorescence units): 5.21e7
- resting calcium signal, replicate 1 (fluorescence units): 2.39e7
- resting calcium signal, replicate 2 (fluorescence units): 2.56e7

kel [DRSC03554]
- calcium entry signal, replicate 1 (fluorescence units): 4.26e7
- calcium entry signal, replicate 2 (fluorescence units): 3.78e7
- resting calcium signal, replicate 1 (fluorescence units): 1.96e7
- resting calcium signal, replicate 2 (fluorescence units): 1.77e7

Marc [DRSC06614]
- calcium entry signal, replicate 1 (fluorescence units): 3.56e7
- calcium entry signal, replicate 2 (fluorescence units): 4.00e7
- resting calcium signal, replicate 1 (fluorescence units): 1.77e7
- resting calcium signal, replicate 2 (fluorescence units): 1.67e7
